These are yes or no findings as the source states them, for the method shown. Tags and fused reporters may be left off the sequences shown.

Assay [1] has as its target His6-TEV-LPL (N-terminally His6-tagged human lipoprotein lipase) (human). In words: SEC; His6-LPL, GPIHBP1 and LMF1 co-transfected 3:1:1 in HEK293T; complex captured from the medium by Ni-affinity, then Superdex 200 in 10 mM Tris pH 7.5, 300 mM NaCl; eluted at ~75 kDa; both purified. Background: SEC sorts molecules by how far they enter the pores of the column.
The target of assay [2] is LPL(28–475)-(G4S)4-hGPIHBP1(21–151)-FLAG-His6-Avi (human). In words: SEC; analytical size-exclusion chromatography of the purified LPL–GPIHBP1 fusion protein; ~75 kDa; both purified.

B1: His6-TEV-LPL (N-terminally His6-tagged human lipoprotein lipase) (enzyme)
chain: ADQRRDFIDIESKFALRTPEDTAEDTCHLIPGVAESVATCHFNHSSKTFMVIHGWTVTGMYESWVPKLVAALYKREPDSNVIVVDWLSRAQEHYPVSAGYTKLVGQDVARFINWMEEEFNYPLDNVHLLGYSLGAHAAGIAGSLTNKKVNRITGLDPAGPNFEYAEAPSRLSPDDADFVDVLHTFTRGSPGRSIGIQKPVGHVDIYPNGGTFQPGCNIGEAIRVIAERGLGDVDQLVKCSHERSIHLFIDSLLNEENPSKAYRCSSKEAFEKGLCLSCRKNRCNNLGYEINKVRAKRSSKMYLKTRSQMPYKVFHYQVKIHFSGTESETHTNQAFEISLYGTVAESENIPFTLPEVSTNKTYSFLIYTEVDIGELLMLKLKWKSDSYFSWSDWWSSPGFAIQKIRVKAGETQKKVIFCSREKVSHLQKGKAPAVFVKCHDKSLNKKSG
notes: human lipoprotein lipase; also called His6-LPL; hLPL; not shown: His6, N-terminal, kept
Take B1: the binding result in assay [1] is “no binding”.

B2: LPL(28–475)-(G4S)4-hGPIHBP1(21–151)-FLAG-His6-Avi (protein)
chain: ADQRRDFIDIESKFALRTPEDTAEDTCHLIPGVAESVATCHFNHSSKTFMVIHGWTVTGMYESWVPKLVAALYKREPDSNVIVVDWLSRAQEHYPVSAGYTKLVGQDVARFINWMEEEFNYPLDNVHLLGYSLGAHAAGIAGSLTNKKVNRITGLDPAGPNFEYAEAPSRLSPDDADFVDVLHTFTRGSPGRSIGIQKPVGHVDIYPNGGTFQPGCNIGEAIRVIAERGLGDVDQLVKCSHERSIHLFIDSLLNEENPSKAYRCSSKEAFEKGLCLSCRKNRCNNLGYEINKVRAKRSSKMYLKTRSQMPYKVFHYQVKIHFSGTESETHTNQAFEISLYGTVAESENIPFTLPEVSTNKTYSFLIYTEVDIGELLMLKLKWKSDSYFSWSDWWSSPGFAIQKIRVKAGETQKKVIFCSREKVSHLQKGKAPAVFVKCHDKSLNKKSGGGGGSGGGGSGGGGSGGGGSQTQQEEEEEDEDHGPDDYDEEDEDEVEEEETNRLPGGRSRVLLRCYTCKSLPRDERCNLTQNCSHGQTCTTLIAHGNTESGLLTTHSTWCTDSCQPITKTVEGTQVTMTCCQSSLCNVPPWQSSRVQDPTG
modifications: biotin on the C-terminal AviTag (BirA) in ELISA and SPR
As for B2, the binding result in assay [2] is listed as “no binding”.
